PubChem BioAssay AID1508597 | Cure First – 2020

Screen: 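Knock-downs altering ovarian cancer cell survival with or without PARP inhibitor rucaparib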 (primary screen)
Cell system: human ovarian carcinoma lines grown from tumours: OCI-P5x (papillary serous) and OCI-C5x (clear cell)
Knock-down reagent: siRNA pool against human genes, 1.25 pmol siRNA per well
Time to read-out: 72 h or 96 h, depending on the cell culture
Treatment: rucaparib 20 µM (about IC30) or vehicle, present until read-out
Rucaparib or vehicle: Vehicle
Cell line: OCI-P5x (serous)
Detection: 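ATP luminescence measured at 72 or 96 h according to the culture, then normalised and expressed as percent viability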
Scale: viability, normalised: higher = more viable cells remaining
Call rule: 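Active when normalised viability falls below 80 percent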
Meaning of the calls: active = viability under 80%; inactive = viability 80% or more
This is an unselected part of the about 2,100 reagents, under one of the conditions tested. 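Calls flag viability under 80% in either arm, not effects specific to rucaparib; the reference for percent is not stated.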 Not given: the 100% reference.

ILK (GeneID 3611), technical replicate 1
- viability, normalised (%): 149
- outcome: inactive

ILK (GeneID 3611), technical replicate 2
- viability, normalised (%): 148
- outcome: inactive

ILK (GeneID 3611), technical replicate 3
- viability, normalised (%): 154
- outcome: inactive

FECH (GeneID 2235), technical replicate 1
- viability, normalised (%): 75.5
- outcome: active

FECH (GeneID 2235), technical replicate 2
- viability, normalised (%): 81.9
- outcome: inactive

FECH (GeneID 2235), technical replicate 3
- viability, normalised (%): 83.7
- outcome: inactive

GTF2H3 (GeneID 2967), technical replicate 1
- viability, normalised (%): 48.8
- outcome: active

GTF2H3 (GeneID 2967), technical replicate 2
- viability, normalised (%): 67.9
- outcome: active

GTF2H3 (GeneID 2967), technical replicate 3
- viability, normalised (%): 60.4
- outcome: active

RLF (GeneID 6018), technical replicate 1
- viability, normalised (%): 67.8
- outcome: active

RLF (GeneID 6018), technical replicate 2
- viability, normalised (%): 62.8
- outcome: active

RLF (GeneID 6018), technical replicate 3
- viability, normalised (%): 72.7
- outcome: active

WDR82 (GeneID 80335), technical replicate 1
- viability, normalised (%): 85.2
- outcome: inactive

WDR82 (GeneID 80335), technical replicate 2
- viability, normalised (%): 102
- outcome: inactive

WDR82 (GeneID 80335), technical replicate 3
- viability, normalised (%): 116
- outcome: inactive

NRXN1 (GeneID 9378), technical replicate 1
- viability, normalised (%): 65.1
- outcome: active

NRXN1 (GeneID 9378), technical replicate 2
- viability, normalised (%): 62.5
- outcome: active

NRXN1 (GeneID 9378), technical replicate 3
- viability, normalised (%): 92
- outcome: inactive

PRPS2 (GeneID 5634), technical replicate 1
- viability, normalised (%): 85.1
- outcome: inactive

PRPS2 (GeneID 5634), technical replicate 2
- viability, normalised (%): 91.1
- outcome: inactive

PRPS2 (GeneID 5634), technical replicate 3
- viability, normalised (%): 92
- outcome: inactive

PCM1 (GeneID 5108), technical replicate 1
- viability, normalised (%): 39
- outcome: active

PCM1 (GeneID 5108), technical replicate 2
- viability, normalised (%): 55.7
- outcome: active

PCM1 (GeneID 5108), technical replicate 3
- viability, normalised (%): 83.4
- outcome: inactive

BCL3 (GeneID 602), technical replicate 1
- viability, normalised (%): 76.3
- outcome: active

BCL3 (GeneID 602), technical replicate 2
- viability, normalised (%): 75.4
- outcome: active

BCL3 (GeneID 602), technical replicate 3
- viability, normalised (%): 90.8
- outcome: inactive

NEK9 (GeneID 91754), technical replicate 1
- viability, normalised (%): 83.3
- outcome: inactive

NEK9 (GeneID 91754), technical replicate 2
- viability, normalised (%): 63.6
- outcome: active

NEK9 (GeneID 91754), technical replicate 3
- viability, normalised (%): 70.2
- outcome: active

NEK4 (GeneID 6787), technical replicate 1
- viability, normalised (%): 73.5
- outcome: active

NEK4 (GeneID 6787), technical replicate 2
- viability, normalised (%): 86.8
- outcome: inactive

NEK4 (GeneID 6787), technical replicate 3
- viability, normalised (%): 93.6
- outcome: inactive

A portion of the results above:
WDR82 (GeneID 80335), technical replicate 2
- viability, normalised (%): 102
- outcome: inactive

WDR82 (GeneID 80335), technical replicate 3
- viability, normalised (%): 116
- outcome: inactive

NRXN1 (GeneID 9378), technical replicate 1
- viability, normalised (%): 65.1
- outcome: active
